Assay results as given in article PMC4882005.
Where a chain is given by its changes, count along the chain named. In names and notes the source's numbering stands. Results are given in words; binding and its absence hold for the method and conditions named. In cells and extracts the contact can be indirect. Some results given as binding are weak or reduced against the parent protein; the word gives no strength. For some assays here: Where a sequence is shown, tags or fusion partners need not be part of it.

The chains behind the UniProt entries cited, without tags or fusion partners.
UniProt Q9H172: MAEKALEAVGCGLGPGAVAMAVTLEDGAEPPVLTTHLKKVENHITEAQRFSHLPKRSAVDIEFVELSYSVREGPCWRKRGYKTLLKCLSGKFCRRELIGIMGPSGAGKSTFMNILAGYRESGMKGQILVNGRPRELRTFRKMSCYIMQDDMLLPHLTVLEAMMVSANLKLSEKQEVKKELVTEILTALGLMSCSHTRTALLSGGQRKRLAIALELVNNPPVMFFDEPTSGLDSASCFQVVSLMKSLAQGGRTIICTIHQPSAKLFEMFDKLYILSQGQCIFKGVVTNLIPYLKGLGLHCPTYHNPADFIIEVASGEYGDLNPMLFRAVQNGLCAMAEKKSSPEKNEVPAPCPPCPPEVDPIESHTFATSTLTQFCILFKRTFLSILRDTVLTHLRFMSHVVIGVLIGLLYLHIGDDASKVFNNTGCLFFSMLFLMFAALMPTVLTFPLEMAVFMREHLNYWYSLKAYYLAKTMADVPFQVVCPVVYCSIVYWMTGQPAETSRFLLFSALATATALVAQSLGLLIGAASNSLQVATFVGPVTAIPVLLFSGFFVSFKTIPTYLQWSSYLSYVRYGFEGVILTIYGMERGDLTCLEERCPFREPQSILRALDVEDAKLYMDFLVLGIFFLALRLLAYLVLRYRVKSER

B1: ABCG2 (wild type, untagged), Q9UNQ0-1 1-655 (protein)
chain: MSSSNVEVFIPVSQGNTNGFPATASNDLKAFTEGAVLSFHNICYRVKLKSGFLPCRKPVEKEILSNINGIMKPGLNAILGPTGGGKSSLLDVLAARKDPSGLSGDVLINGAPRPANFKCNSGYVVQDDVVMGTLTVRENLQFSAALRLATTMTNHEKNERINRVIQELGLDKVADSKVGTQFIRGVSGGERKRTSIGMELITDPSILFLDEPTTGLDSSTANAVLLLLKRMSKQGRTIIFSIHQPRYSIFKLFDSLTLLASGRLMFHGPAQEALGYFESAGYHCEAYNNPADFFLDIINGDSTAVALNREEDFKATEIIEPSKQDKPLIEKLAEIYVNSSFYKETKAELHQLSGGEKKKKITVFKEISYTTSFCHQLRWVSKRSFKNLLGNPQASIAQIIVTVVLGLVIGAIYFGLKNDSTGIQNRAGVLFFLTTNQCFSSVSAVELFVVEKKLFIHEYISGYYRVSSYFLGKLLSDLLPMRMLPSIIFTCIVYFMLGLKPKADAFFVMMFTLMMVAYSASSMALAIAAGQSVVSVATLLMTICFVFMMIFSGLLVNLTTIASWLSWLQYFSIPRYGFTALQHNEFLGQNFCPGLNATGNNPCNYATCTGEEYLVKQGIDLSPWGLWKNHVALACMIVIFLTIAYLKLLFLKKYS
B2: ABCG2 K86M, inactive form (protein, UniProt Q9UNQ0-1 1-655)
chain: B1 chain with K86M

Experiments:
GFP-ABCG2, Q9UNQ0 = target: T1, GFP-ABCG2, Q9UNQ0; test: co-IP; HEK293 co-transfected with the GFP-tagged and the untagged protein (untagged in excess), lysed 24 h after transfection in 50 mM Tris pH 7.4, 150 mM NaCl, 0.5% NP-40; precipitated with anti-GFP on protein G-sepharose, 2 h at 4°C; Western blot of the precipitate; conditions: remark: other sources report otherwise
T1 chain: B1 chain

[1] = target: ABCG4 (wild type, untagged) (UniProt Q9H172); test: co-IP; HEK293 co-transfected with ABCG4 and an ABCG1 or ABCG2 variant, lysed in 50 mM Tris pH 7.4, 150 mM NaCl, 0.5% NP-40; precipitated with anti-ABCG4 monoclonal antibody on protein G-sepharose, 2 h at 4°C; Western blot of the precipitate

Row | Binder | binding (GFP-ABCG2, Q9UNQ0) | binding [1]
1 | B1 | binds | –
2 | B2 | – | no binding
